In the supplement of paper PMC7666118:
Some of the results follow.

Protein sequences, listed by entry. Tags and fused reporters are not part of them. Lines headed by an entry give the natural chain unless they say otherwise; changes in a name come on top.
UniProt Q8IWT6: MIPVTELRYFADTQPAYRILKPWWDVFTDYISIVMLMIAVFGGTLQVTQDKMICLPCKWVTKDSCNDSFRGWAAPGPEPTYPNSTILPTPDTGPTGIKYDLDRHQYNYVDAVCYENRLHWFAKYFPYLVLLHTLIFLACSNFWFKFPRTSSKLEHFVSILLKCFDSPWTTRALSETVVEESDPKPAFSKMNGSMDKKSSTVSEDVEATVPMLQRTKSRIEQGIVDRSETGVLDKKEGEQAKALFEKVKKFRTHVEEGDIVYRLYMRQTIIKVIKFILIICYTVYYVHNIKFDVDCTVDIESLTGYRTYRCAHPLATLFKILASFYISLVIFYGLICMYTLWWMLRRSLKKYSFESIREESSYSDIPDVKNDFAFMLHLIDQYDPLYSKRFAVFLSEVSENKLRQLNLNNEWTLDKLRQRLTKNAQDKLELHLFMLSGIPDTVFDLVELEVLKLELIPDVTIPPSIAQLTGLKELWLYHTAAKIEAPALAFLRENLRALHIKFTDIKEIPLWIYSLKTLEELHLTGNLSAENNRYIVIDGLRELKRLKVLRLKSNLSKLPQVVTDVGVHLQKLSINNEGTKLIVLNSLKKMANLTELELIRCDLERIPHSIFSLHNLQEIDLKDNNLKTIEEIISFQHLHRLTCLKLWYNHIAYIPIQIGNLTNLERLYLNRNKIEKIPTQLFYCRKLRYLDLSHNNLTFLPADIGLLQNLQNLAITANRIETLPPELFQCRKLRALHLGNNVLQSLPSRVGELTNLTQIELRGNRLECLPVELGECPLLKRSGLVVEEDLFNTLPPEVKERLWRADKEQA
UniProt Q15031: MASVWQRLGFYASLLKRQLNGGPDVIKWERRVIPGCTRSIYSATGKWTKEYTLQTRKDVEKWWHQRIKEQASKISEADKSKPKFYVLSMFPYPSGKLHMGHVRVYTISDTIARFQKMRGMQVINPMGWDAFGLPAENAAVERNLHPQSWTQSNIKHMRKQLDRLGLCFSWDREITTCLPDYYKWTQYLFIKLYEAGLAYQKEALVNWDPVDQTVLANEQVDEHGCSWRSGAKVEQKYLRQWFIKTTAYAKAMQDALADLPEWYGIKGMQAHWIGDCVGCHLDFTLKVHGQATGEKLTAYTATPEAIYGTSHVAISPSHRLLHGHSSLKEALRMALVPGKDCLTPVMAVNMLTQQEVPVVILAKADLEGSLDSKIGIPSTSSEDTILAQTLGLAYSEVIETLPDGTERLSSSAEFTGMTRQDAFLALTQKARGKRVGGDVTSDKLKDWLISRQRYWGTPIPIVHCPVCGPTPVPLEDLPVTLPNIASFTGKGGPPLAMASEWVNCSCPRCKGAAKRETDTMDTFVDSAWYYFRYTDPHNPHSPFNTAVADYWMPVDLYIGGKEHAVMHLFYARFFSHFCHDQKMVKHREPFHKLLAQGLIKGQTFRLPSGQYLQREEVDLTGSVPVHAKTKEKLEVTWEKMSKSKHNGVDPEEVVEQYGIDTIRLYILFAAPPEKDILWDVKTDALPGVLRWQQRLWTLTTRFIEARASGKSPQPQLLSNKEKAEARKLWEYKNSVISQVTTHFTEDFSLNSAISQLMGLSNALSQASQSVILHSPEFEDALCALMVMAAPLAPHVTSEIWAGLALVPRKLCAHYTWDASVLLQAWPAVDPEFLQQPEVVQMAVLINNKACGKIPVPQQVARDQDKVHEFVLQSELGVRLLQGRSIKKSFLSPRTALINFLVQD
UniProt Q9UK45: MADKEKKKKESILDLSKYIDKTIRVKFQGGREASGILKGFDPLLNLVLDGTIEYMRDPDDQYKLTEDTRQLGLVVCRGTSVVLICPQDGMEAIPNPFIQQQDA
UniProt Q96PV6, whole entry: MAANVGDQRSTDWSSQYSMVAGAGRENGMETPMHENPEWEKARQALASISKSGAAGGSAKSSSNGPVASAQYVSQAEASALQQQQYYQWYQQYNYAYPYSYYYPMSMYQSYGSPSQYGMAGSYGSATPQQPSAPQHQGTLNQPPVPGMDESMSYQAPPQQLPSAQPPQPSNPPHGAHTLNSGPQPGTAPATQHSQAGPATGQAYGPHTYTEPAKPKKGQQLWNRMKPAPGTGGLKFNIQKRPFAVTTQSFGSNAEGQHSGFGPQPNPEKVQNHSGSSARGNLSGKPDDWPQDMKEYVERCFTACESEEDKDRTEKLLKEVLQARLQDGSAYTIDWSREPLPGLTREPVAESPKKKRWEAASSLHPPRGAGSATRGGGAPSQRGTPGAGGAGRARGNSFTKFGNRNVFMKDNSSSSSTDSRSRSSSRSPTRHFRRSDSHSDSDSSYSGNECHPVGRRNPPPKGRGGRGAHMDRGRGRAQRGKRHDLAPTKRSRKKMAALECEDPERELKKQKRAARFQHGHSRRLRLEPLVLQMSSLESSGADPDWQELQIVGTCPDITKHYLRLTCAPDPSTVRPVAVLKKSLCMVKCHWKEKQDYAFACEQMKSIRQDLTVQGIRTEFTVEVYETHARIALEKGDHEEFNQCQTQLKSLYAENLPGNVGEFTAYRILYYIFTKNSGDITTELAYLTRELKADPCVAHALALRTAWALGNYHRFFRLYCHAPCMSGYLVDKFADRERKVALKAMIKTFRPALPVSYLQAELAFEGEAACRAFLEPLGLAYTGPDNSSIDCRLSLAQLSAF
UniProt Q96S06: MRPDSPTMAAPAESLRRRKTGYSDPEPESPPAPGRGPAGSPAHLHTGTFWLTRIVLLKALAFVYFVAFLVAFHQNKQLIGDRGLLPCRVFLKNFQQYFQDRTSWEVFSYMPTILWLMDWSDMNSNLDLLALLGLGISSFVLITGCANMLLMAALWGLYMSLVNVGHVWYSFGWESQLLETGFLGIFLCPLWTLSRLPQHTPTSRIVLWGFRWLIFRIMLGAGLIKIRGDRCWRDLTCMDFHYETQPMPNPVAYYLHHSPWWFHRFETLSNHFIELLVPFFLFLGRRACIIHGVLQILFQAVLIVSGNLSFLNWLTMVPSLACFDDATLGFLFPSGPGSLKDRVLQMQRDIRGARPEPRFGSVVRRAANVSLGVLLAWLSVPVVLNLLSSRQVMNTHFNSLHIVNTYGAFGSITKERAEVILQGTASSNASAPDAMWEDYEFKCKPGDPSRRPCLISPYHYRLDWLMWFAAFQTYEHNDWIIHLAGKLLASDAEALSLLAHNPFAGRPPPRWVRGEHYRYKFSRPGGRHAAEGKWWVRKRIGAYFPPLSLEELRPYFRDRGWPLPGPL
UniProt Q9UI95, whole entry: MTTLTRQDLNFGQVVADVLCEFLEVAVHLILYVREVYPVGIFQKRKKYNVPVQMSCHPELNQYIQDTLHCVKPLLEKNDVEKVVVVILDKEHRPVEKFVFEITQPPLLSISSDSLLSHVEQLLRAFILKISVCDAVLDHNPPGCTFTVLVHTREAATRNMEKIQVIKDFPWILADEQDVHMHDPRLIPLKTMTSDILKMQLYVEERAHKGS
UniProt Q9BQ69: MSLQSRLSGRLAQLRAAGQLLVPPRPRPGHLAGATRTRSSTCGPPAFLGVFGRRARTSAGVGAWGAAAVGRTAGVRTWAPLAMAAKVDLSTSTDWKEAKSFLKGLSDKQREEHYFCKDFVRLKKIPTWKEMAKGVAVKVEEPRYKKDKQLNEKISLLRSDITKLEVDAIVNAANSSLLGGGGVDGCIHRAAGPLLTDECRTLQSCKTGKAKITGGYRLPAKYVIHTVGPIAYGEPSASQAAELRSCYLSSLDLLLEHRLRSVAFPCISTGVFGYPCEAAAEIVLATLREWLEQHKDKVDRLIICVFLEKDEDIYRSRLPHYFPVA
UniProt Q05BQ5, whole entry: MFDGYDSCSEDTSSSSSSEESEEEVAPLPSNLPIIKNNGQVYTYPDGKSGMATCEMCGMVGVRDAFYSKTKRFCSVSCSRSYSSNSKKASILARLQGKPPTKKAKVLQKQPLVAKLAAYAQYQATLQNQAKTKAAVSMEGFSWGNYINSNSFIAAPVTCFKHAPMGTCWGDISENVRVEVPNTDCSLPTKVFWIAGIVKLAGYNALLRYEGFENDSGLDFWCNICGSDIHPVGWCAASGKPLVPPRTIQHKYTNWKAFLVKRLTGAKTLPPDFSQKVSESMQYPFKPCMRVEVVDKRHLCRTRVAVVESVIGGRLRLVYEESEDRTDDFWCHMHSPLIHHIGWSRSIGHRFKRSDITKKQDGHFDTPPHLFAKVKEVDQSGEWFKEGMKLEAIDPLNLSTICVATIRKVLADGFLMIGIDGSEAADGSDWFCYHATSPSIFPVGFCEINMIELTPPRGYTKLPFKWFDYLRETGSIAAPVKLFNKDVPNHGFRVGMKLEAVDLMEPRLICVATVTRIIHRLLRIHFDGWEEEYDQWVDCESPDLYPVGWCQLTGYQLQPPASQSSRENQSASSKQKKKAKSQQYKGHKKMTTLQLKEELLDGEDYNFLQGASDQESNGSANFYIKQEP
UniProt Q9UNF1: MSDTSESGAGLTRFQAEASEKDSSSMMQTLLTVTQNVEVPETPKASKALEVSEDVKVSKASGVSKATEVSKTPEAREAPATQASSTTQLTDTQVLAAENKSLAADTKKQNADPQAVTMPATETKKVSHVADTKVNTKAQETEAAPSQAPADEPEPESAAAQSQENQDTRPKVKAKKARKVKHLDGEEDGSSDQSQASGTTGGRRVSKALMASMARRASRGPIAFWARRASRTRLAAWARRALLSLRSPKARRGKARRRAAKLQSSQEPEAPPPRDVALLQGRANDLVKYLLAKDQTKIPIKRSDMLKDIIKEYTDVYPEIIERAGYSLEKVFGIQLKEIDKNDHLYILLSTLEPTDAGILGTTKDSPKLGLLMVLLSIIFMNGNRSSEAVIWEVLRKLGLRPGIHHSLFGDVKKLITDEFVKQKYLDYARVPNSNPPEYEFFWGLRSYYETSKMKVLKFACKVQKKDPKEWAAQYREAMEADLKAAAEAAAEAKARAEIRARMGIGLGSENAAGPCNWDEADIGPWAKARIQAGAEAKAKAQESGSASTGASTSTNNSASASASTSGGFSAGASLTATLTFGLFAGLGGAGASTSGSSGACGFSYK
UniProt Q9Y2U5: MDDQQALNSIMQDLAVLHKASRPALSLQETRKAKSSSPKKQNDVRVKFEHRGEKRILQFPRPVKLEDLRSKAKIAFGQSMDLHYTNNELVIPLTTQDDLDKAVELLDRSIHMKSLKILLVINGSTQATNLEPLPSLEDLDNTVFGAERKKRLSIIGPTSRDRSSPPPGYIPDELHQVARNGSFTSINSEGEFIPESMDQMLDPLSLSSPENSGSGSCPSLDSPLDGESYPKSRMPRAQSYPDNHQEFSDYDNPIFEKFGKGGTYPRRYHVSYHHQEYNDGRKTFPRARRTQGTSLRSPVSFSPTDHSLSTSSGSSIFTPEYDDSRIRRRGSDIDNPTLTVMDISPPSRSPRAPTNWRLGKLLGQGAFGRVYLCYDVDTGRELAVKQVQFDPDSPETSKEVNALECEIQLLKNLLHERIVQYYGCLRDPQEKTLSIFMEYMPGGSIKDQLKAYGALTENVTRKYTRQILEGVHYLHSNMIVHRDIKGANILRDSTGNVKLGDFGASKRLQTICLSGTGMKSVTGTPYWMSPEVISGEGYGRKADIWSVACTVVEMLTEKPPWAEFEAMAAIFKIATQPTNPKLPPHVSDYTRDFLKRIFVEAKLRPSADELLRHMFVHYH
UniProt Q9Y3D7: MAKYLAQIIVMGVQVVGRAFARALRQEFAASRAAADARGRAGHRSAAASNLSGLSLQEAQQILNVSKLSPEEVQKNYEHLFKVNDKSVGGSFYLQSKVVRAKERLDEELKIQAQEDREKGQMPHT
UniProt Q6ZMG9: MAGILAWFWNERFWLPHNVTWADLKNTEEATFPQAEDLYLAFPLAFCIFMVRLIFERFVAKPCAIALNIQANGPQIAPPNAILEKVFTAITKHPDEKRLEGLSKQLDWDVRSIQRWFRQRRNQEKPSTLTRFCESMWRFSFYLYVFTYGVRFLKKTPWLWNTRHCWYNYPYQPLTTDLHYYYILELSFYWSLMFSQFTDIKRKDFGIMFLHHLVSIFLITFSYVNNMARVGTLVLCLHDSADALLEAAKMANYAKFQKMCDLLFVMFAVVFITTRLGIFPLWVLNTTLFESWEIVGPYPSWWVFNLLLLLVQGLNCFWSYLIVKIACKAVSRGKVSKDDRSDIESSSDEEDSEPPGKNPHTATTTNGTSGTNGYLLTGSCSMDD
UniProt O14733: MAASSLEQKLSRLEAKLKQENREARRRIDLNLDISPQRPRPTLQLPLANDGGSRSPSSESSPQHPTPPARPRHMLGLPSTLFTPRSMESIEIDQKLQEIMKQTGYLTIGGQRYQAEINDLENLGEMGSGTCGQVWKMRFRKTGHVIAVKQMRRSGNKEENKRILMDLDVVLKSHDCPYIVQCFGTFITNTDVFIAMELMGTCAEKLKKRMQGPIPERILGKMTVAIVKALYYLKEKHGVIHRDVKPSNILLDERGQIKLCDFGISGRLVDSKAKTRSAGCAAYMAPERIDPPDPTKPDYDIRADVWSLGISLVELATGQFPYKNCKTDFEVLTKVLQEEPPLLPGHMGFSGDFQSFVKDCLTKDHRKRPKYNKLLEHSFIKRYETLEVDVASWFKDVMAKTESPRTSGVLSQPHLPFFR

compound: COc1ccc(Cn2ccc3cc(C)c(C(=O)NO)cc32)cc1; assay: dose-dependent thermal stabilisation call (2D-TPP, DLPTP, 10% FDR) (binary (1 = stabilised)); higher = stabilised by the compound; conditions: system: HL-60 intact cells; concentration range 0.04-10 µM
Experimental: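 2D thermal proteome profiling in intact HL-60 cells treated with BRD-3811 (0, 0.04, 0.29, 2, 10 uM) for 90 min at 37 C, then heated 3 min at one of 12 temperatures (42-63.9 C). Soluble protein was quantified by TMT10 MS. The value is the DLPTP call of the paper: dose-dependent thermal stabilisation over all temperatures at 10% FDR (F-test of a dose-response against a flat model); one experiment, one call per tested protein.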

Row | Target | dose-dependent thermal stabilisation call
1 | LCP2 (UniProt Q13094) | inactive: 0
2 | MAPK12 (UniProt P53778) | inactive: 0
3 | LRRC8A (UniProt Q8IWT6) | inactive: 0
4 | LARS2 (UniProt Q15031) | inactive: 0
5 | MARCH5 (UniProt Q9NX47) | inactive: 0
6 | LARP5 (UniProt Q92615) | inactive: 0
7 | MARCKS (UniProt P29966) | inactive: 0
8 | LSM7 (UniProt Q9UK45) | inactive: 0
9 | LRPAP1 (UniProt P30533) | inactive: 0
10 | LENG8 (UniProt Q96PV6) | inactive: 0
11 | LMF1 (UniProt Q96S06) | inactive: 0
12 | LRRFIP2 (UniProt Q9Y608) | inactive: 0
13 | MAD2L2 (UniProt Q9UI95) | inactive: 0
14 | MACROD1 (UniProt Q9BQ69) | inactive: 0
15 | MBTD1 (UniProt Q05BQ5) | inactive: 0
16 | MCAT (UniProt Q8IVS2) | inactive: 0
17 | LOC100129759 | inactive: 0
18 | KRI1 (UniProt Q8N9T8) | inactive: 0

Row | Target | dose-dependent thermal stabilisation call
19 | MCM7 (UniProt P33993) | inactive: 0
20 | MAT2B (UniProt Q9NZL9) | inactive: 0
21 | LRRC8D (UniProt Q7L1W4) | inactive: 0
22 | MALT1 (UniProt Q9UDY8) | inactive: 0
23 | MAGED2 (UniProt Q9UNF1) | inactive: 0
24 | MAP3K5 (UniProt Q99683) | inactive: 0
25 | LMNB2 (UniProt Q03252) | inactive: 0
26 | MBOAT1 (UniProt Q6ZNC8) | inactive: 0
27 | MAP7D3 (UniProt Q8IWC1) | inactive: 0
28 | MAP3K2 (UniProt Q9Y2U5) | inactive: 0
29 | MANEA (UniProt Q5SRI9) | inactive: 0
30 | MAP3K1 (UniProt Q13233) | inactive: 0
31 | MAGMAS (UniProt Q9Y3D7) | inactive: 0
32 | LSD1 (UniProt O60341) | inactive: 0
33 | MBP (UniProt P02686) | inactive: 0
34 | LASS6 (UniProt Q6ZMG9) | inactive: 0
35 | LOC100133916 | inactive: 0
36 | MAP2K7 (UniProt O14733) | inactive: 0

Random excerpt: 3 records from the list, in no set order.
Row | Target | dose-dependent thermal stabilisation call
19 | MCM7 (UniProt P33993) | inactive: 0
36 | MAP2K7 (UniProt O14733) | inactive: 0
23 | MAGED2 (UniProt Q9UNF1) | inactive: 0
